Test results: article PMC6770826, “HDX and Native Mass Spectrometry Reveals the Different Structural Basis for Interaction of the Staphylococcal Pathogenicity Island Repressor Stl with Dimeric and Trimeric Phage dUTPases” (Biomolecules, 2019)
No constants are given. Whether binding was seen depends on the method and setting. Binding calls can cover weak binding; strength is not graded here.

Experiments:
[1] = biological target: T1, φNM1 phage dUTPase (Staphylococcus aureus phage φNM1) (UniProt A0EWK2); test: native gel or EMSA; 12% polyacrylamide, Tris-HCl pH 8.7, cooled on ice; proteins alone or premixed at various molar ratios; both purified
T1 sequence: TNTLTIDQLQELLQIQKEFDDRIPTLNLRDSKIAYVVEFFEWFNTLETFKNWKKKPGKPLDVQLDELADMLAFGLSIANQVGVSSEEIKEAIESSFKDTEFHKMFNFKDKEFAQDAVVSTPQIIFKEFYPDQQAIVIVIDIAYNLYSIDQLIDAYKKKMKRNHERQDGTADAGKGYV

[2] = biological target: T1, φNM1 phage dUTPase (Staphylococcus aureus phage φNM1); test: HDX-MS; labelling at 20 °C for 1, 10 and 100 min in 20 mM HEPES, 300 mM NaCl, 5 mM MgCl2 in D2O, pD 7.1; proteins alone or pre-mixed at about equimolar concentrations; pepsin digestion; both purified

“Stl repressor protein of S. aureus pathogenicity island SaPIbov1” was tested, and the binding [1] was “binds” and the binding [2] was “binds”.
